Results as given in publication doi:10.1101/2023.08.04.551955.

Sequences of proteins named here, by UniProt entry; tags and fusion partners are left off. A change or cut given only in a name is not applied to a line headed by its entry. A line that says so, or that is headed by a name, gives the form on record, which may keep a tag or linker.
UniProt P29067: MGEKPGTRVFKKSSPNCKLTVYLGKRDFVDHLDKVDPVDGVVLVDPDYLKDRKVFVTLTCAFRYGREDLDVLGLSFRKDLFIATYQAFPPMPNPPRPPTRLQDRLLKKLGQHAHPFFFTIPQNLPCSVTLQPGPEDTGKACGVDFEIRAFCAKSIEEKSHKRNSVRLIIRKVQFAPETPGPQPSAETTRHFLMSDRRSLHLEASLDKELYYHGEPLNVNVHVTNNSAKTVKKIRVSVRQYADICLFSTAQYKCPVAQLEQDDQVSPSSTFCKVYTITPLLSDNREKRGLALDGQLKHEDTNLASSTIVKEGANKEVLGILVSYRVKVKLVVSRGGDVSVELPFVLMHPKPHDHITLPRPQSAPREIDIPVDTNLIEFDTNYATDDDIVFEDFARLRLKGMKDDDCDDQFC
TurboID-tagged K2A-mutant rat β-arrestin2 (P29067, form named): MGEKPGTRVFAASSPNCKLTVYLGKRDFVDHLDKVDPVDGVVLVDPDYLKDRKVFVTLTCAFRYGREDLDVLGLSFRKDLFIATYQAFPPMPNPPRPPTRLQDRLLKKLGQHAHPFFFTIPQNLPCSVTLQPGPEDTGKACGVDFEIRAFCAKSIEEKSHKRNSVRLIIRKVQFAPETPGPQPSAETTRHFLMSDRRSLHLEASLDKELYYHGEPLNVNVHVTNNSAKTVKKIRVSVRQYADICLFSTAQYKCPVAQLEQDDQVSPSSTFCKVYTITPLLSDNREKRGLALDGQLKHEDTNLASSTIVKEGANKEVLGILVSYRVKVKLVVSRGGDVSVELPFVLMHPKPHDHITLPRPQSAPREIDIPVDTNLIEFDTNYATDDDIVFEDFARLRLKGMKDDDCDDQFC

What was measured:
[1] = molecular target: TurboID-tagged K2A-mutant rat β-arrestin2 (rat) (UniProt P29067); test: proximity labelling
[2] = molecular target: TurboID-tagged wild-type rat β-arrestin2 (rat) (UniProt P29067); test: proximity labelling

Binder	binding [1]	binding [2]
AT1R-Cterm–Venus (plasma membrane-targeted C-terminus of rat AT1a angiotensin receptor) (domain or fragment, phosphorylation induced by PMA (PKC) in the cells; residues not given) MGCVCSSNPENNNNDPTRSRAQASNSGGGIPPKAKSHSSLSTKMSTLSYRPSDNMSSSAKKPASCFEVE	no binding	binds
HIV Tat-specific factor 1, endogenous (protein, UniProt O43719 1-755) MSGTNLDGNDEFDEQLRMQELYGDGKDGDTQTDAGGEPDSLGQQPTDTPYEWDLDKKAWFPKITEDFIATYQANYGFSNDGASSSTANVEDVHARTAEEPPQEKAPEPTDARKKGEKRKAESGWFHVEEDRNTNVYVSGLPPDITVDEFIQLMSKFGIIMRDPQTEEFKVKLYKDNQGNLKGDGLCCYLKRESVELALKLLDEDEIRGYKLHVEVAKFQLKGEYDASKKKKKCKDYKKKLSMQQKQLDWRPERRAGPSRMRHERVVIIKNMFHPMDFEDDPLVLNEIREDLRVECSKFGQIRKLLLFDRHPDGVASVSFRDPEEADYCIQTLDGRWFGGRQITAQAWDGTTDYQVEETSREREERLRGWEAFLNAPEANRGLRRSDSVSASERAGPSRARHFSEHPSTSKMNAQETATGMAFEEPIDEKKFEKTEDGGEFEEGASENNAKESSPEKEAEEGCPEKESEEGCPKRGFEGSCSQKESEEGNPVRGSEEDSPKKESKKKTLKNDCEENGLAKESEDDLNKESEEEVGPTKESEEDDSEKESDEDCSEKQSEDGSEREFEENGLEKDLDEEGSEKELHENVLDKELEENDSENSEFEDDGSEKVLDEEGSEREFDEDSDEKEEEEDTYEKVFDDESDEKEDEEYADEKGLEAADKKAEEGDADEKLFEESDDKEDEDADGKEVEDADEKLFEDDDSNEKLFDEEEDSSEKLFDDSDERGTLGGFGSVEEGPLSTGSSFILSSDDDDDDI		binds

No constants are given. Whether binding was seen depends on the method and setting. Binding seen in cells or lysates may run through a third protein. Here binding means that the protein was enriched with, or labelled near, the bait; the list need not be complete. For part of these data: A no says only that the protein was not detected with the bait.
